For eight molecules, binding results are on record in patent US20190309034A1.

First the molecules themselves.
B1: 227D5A7 (antibody, V domains shown)
VH: QVQLQQPGAELVKPGASVKLSCKASGYTFSIFCVHWVQQRPGRGLEWIGRIDPSSGGTKYNEKFESKATLTVDKSSSTAYMQLSSLTPEDSAVYYCARGEDLLVRTDALDYWGQGSSVTVSS
VL: DIVMTQSQKFMSTTVGDRVSITCKASQNAGAAVAWFQQKPGQSPKLLIYSASNRYTGVPDRFTGSGSGTDFTLTISNVQSEDLADYICQQYRSFPRTFGGGTKLEIK
B2: 250E5A11 (antibody, V domains shown)
VH: B1 VH with A9T, V34I, K63R, S66N, P88F, L109M, S116T
VL: B1 VL with S76T
B3: 210D9B8 (antibody, V domains shown)
VH: QVQLQQPGTEFVKPGASVKLSCEASGYTFITYWMHWVKQRPGRGLEWIGGIDPNSGVIKYNEKFKSKATLTVDKPSSTAYMQLSSLTSEDSAVYYCARGEDLLIRTDAMDYWGQGTSVTVSS
VL: DIVMTQSQKFVSTTLGDRVSITCKASQSVGIAVAWYQQKPGHSPNLLIFSTSNRYTGVPDRFTGSGSGTDFTLTISDVQSEDLADYFCQQYSRYPRTFGGGTKLEIK
B4: 13J018-1A4 (antibody, V domains shown)
VH: QVQLQQSGPEVVRPGASVKISCKAPDHIFSIHWMQWVRQRPGPGLEWIGEIFPGSGTTDYNEKFKGKATVTVDRGSRSAYMQFNSLTSEDSAVYFCASGAFDYWGQGTTLTVSS
VL: DIQMTQSPSSLSASLGERVSLTCRASQDIGNRLNWLQQEPDGTIKRLIYATSSLDSGVPKRFSGSRSGSDYSLTISSLESEDFVDYYCLQYASSPFTFGTGTKLEIK
B5: 235F5B9 (antibody, V domains shown)
VH: QVQLQQPGAELVKPGASVKLSCKASGYSFSTFFIHWIQQRPGRGLEWIGRIDPNSGATKYNEKFESKATLTVDKPSSTAYMHLSSLTSEDSAVYYCARGEDLLIRTDALDYWGQGTSVTVSS
VL: DIVMTQSQKIMSTTVGDRVSITCKASQNAGIDVAWFQQKPRQSPKLLIFSKSNRYTGVPDRFAGSGSGTDFTLTIYNVQSEDLADYFCLQYRSYPRTFGGGTKLEIK
B6: 217H12A7 (antibody, V domains shown)
VH: B5 VH with S28T, F33L, I37V, A57G, S66R, A68V, H82Q, I104L, L109M
VL: B1 VL with A31T, S52F, V78M, F94Y
B7: 227D3B11 (antibody, V domains shown)
VH: B5 VH with A57G, L109M
VL: B5 VL with K51T
B8: 206G9A10 (antibody, V domains shown)
VH: B1 VH with V34I, P88S, L109M, S116T
VL: B1 VL with F94Y

Where a chain is given by its changes, count along the chain named. These are yes or no findings as the source states them, for the method shown. A result given as binding can be weak or reduced; the word gives no strength.

For this experiment, the target named is Recombinant Human BAFF (epitope mapping) (human). The experiment in a line: HXMS, BAFF with equimolar antibody.
B1: the binding entry is “binds”.
The entry for B2 is “binds”; for B3 it is “binds”; for B4 it is “binds”.
B5: the binding entry is “binds”.
Take B6: the binding entry is recorded as “binds”.
The same measure for B7: “binds”.
The same measure for B8: “binds”.
